Laboratory results: patent US20250283871A1, “COMPOSITIONS AND METHODS FOR MODULATING THE INTERACTION BETWEEN SS18-SSX FUSION ONCOPROTEIN AND NUCLEOSOMES” (Dana-Farber Cancer Institute, Inc., priority 2020, published 2025)

B1: RBM15B (protein, UniProt Q8NDT2 1-890, looked up)
Putative RNA-binding protein …: MKRQSERDSSPSGRGSSSSAKRPREREREAEAGGRRAAHKASGGAKHPVPARARDKPRGSGSGGGGHRDGRGTGDANHRASSGRSSGSGAGGGGRGGKASGDPGASGMSPRASPLPPPPPPPGAEPACPGSSAAAPEYKTLLISSLSPALPAEHLEDRLFHQFKRFGEISLRLSHTPELGRVAYVNFRHPQDAREARQHALARQLLLYDRPLKVEPVYLRGGGGSSRRSSSSSAAASTPPPGPPAPADPLGYLPLHGGYQYKQRSLSPVAAPPLREPRARHAAAAFALDAAAAAAVGLSRERALDYYGLYDDRGRPYGYPAVCEEDLMPEDDQRATRNLFIGNLDHSVSEVELRRAFEKYGIIEEVVIKRPARGQGGAYAFLKFQNLDMAHRAKVAMSGRVIGRNPIKIGYGKANPTTRLWVGGLGPNTSLAALAREFDRFGSIRTIDHVKGDSFAYIQYESLDAAQAACAKMRGFPLGGPDRRLRVDFAKAEETRYPQQYQPSPLPVHYELLTDGYTRHRNLDADLVRDRTPPHLLYSDRDRTFLEGDWTSPSKSSDRRNSLEGYSRSVRSRSGERWGADGDRGLPKPWEERRKRRSLSSDRGRTTHSPYEERSRTKGSGQQSERGSDRTPERSRKENHSSEGTKESSSNSLSNSRHGAEERGHHHHHHEAADSSHGKKARDSERNHRTTEAEPKPLEEPKHETKKLKNLSEYAQTLQLGWNGLLVLKNSCFPTSMHILEGDQGVISSLLKDHTSGSKLTQLKIAQRLRLDQPKLDEVTRRIKQGSPNGYAVLLATQATPSGLGTEGMPTVEPGLQRRLLRNLVSYLKQKQAAGVISLPVGGSKGRDGTGMLYAFPPCDFSQQYLQSALRTLGKLEEEHMVIVIVRDTA
B2: ACOT9 (protein, UniProt Q9Y305 22-439, looked up)
Acyl-coenzyme A thioesterase …: LTQGPQNPKKQGIFHIHEVRDKLREIVGASTNWRDHVKAMEERKLLHSFLAKSQDGLPPRRMKDSYIEVLLPLGSEPELREKYLTVQNTVRFGRILEDLDSLGVLICYMHNKIHSAKMSPLSIVTALVDKIDMCKKSLSPEQDIKFSGHVSWVGKTSMEVKMQMFQLHGDEFCPVLDATFVMVARDSENKGPAFVNPLIPESPEEEELFRQGELNKGRRIAFSSTSLLKMAPSAEERTTIHEMFLSTLDPKTISFRSRVLPSNAVWMENSKLKSLEICHPQERNIFNRIFGGFLMRKAYELAWATACSFGGSRPFVVAVDDIMFQKPVEVGSLLFLSSQVCFTQNNYIQVRVHSEVASLQEKQHTTTNVFHFTFMSEKEVPLVFPKTYGESMLYLDGQRHFNSMSGPATLRKDYLVEP
B3: ATP5F1 (protein, UniProt P24539 43-256, looked up)
ATP synthase peripheral stalk …: PVPPLPEYGGKVRYGLIPEEFFQFLYPKTGVTGPYVLGTGLILYALSKEIYVISAETFTALSVLGVMVYGIKKYGPFVADFADKLNEQKLAQLEEAKQASIQHIQNAIDTEKSQQALVQKRHYLFDVQRNNIAMALEVTYRERLYRVYKEVKNRLDYHISVQNMMRRKEQEHMINWVEKHVVQSISTQQEKETIAKCIADLKLLAKKAQAQPVM
B4: PDHB (protein, UniProt P11177 31-359, looked up)
Pyruvate dehydrogenase E1 …: LQVTVRDAINQGMDEELERDEKVFLLGEEVAQYDGAYKVSRGLWKKYGDKRIIDTPISEMGFAGIAVGAAMAGLRPICEFMTFNFSMQAIDQVINSAAKTYYMSGGLQPVPIVFRGPNGASAGVAAQHSQCFAAWYGHCPGLKVVSPWNSEDAKGLIKSAIRDNNPVVVLENELMYGVPFEFPPEAQSKDFLIPIGKAKIERQGTHITVVSHSRPVGHCLEAAAVLSKEGVECEVINMRTIRPMDMETIEASVMKTNHLVTVEGGWPQFGVGAEICARIMEGPAFNFLDAPAVRVTGADVPMPYAKILEDNSIPQVKDIIFAIKKTLNI
B5: GCAT (protein, UniProt O75600 22-419, looked up)
2-amino-3-ketobutyrate …: SALAQLRGILEGELEGIRGAGTWKSERVITSRQGPHIRVDGVSGGILNFCANNYLGLSSHPEVIQAGLQALEEFGAGLSSVRFICGTQSIHKNLEAKIARFHQREDAILYPSCYDANAGLFEALLTPEDAVLSDELNHASIIDGIRLCKAHKYRYRHLDMADLEAKLQEAQKHRLRLVATDGAFSMDGDIAPLQEICCLASRYGALVFMDECHATGFLGPTGRGTDELLGVMDQVTIINSTLGKALGGASGGYTTGPGPLVSLLRQRARPYLFSNSLPPAVVGCASKALDLLMGSNTIVQSMAAKTQRFRSKMEAAGFTISGASHPICPVMLGDARLASRMADDMLKRGIFVIGFSYPVVPKGKARIRVQISAVHSEEDIDRCVEAFVEVGRLHGALP
B6: ATAD3B (protein, UniProt Q5T9A4 2-648, looked up)
ATPase family AAA …: SWLFGVNKGPKGEGAGPPPPLPPAQPGAEGGGDRGLGDRPAPKDKWSNFDPTGLERAAKAARELEHSRYAKEALNLAQMQEQTLQLEQQSKLKEYEAAVEQLKSEQIRAQAEERRKTLSEETRQHQARAQYQDKLARQRYEDQLKQQQLLNEENLRKQEESVQKQEAMRRATVEREMELRHKNEMLRVETEARARAKAERENADIIREQIRLKASEHRQTVLESIRTAGTLFGEGFRAFVTDRDKVTATVAGLTLLAVGVYSAKNATAVTGRFIEARLGKPSLVRETSRITVLEALRHPIQVSRRLLSRPQDVLEGVVLSPSLEARVRDIAIATRNTKKNRGLYRHILLYGPPGTGKTLFAKKLALHSGMDYAIMTGGDVAPMGREGVTAMHKLFDWANTSRRGLLLFMDEADAFLRKRATEEISKDLRATLNAFLYHMGQHSNKFMLVLASNLPEQFDCAINSRIDVMVHFDLPQQEERERLVRLHFDNCVLKPATEGKRRLKLAQFDYGRKCSEVARLTEGMSGREIAQLAVSWQATAYASKDGVLTEAMMDACVQDAVQQYRQKMRWLKAEGPGRGVEHPLSGVQGETLTSWSLATDPSYPCLAGPCTFRICSWMGTGLCPGPLSPRMSCGGGRPFCPPGHPLL
B7: SCAMP3 (protein, UniProt O14828 1-347, looked up)
Secretory carrier-associated …: MAQSRDGGNPFAEPSELDNPFQDPAVIQHRPSRQYATLDVYNPFETREPPPAYEPPAPAPLPPPSAPSLQPSRKLSPTEPKNYGSYSTQASAAAATAELLKKQEELNRKAEELDRRERELQHAALGGTATRQNNWPPLPSFCPVQPCFFQDISMEIPQEFQKTVSTMYYLWMCSTLALLLNFLACLASFCVETNNGAGFGLSILWVLLFTPCSFVCWYRPMYKAFRSDSSFNFFVFFFIFFVQDVLFVLQAIGIPGWGFSGWISALVVPKGNTAVSVLMLLVALLFTGIAVLGIVMLKRIHSLYRRTGASFQKAQQEFAAGVFSNPAVRTAAANAAAGAAENAFRAP
B8: CHCHD3 (protein, UniProt Q9NX63 2-227, looked up)
MICOS complex subunit MIC19: GGTTSTRRVTFEADENENITVVKGIRLSENVIDRMKESSPSGSKSQRYSGAYGASVSDEELKRRVAEELALEQAKKESEDQKRLKQAKELDRERAAANEQLTRAILRERICSEEERAKAKHLARQLEEKDRVLKKQDAFYKEQLARLEERSSEFYRVTTEQYQKAAEEVEAKFKRYESHPVCADLQAKILQCYRENTHQTLKCSALATQYMHCVNHAKQSMLEKGG

Tested on: BAF complex subunits and histone proteins
Experiment: Mass spectrometry proteomics of purified HA-SS18 WT and HA-SS18-SSX1 complexes (Tables 5A-5E)
Design: species or system human
Settings: HA-SS18SSX1 purification, NE (soluble nuclear extract) fraction, HEK-293T; peptides per identified protein

B1 and B2 are the same in “Total (total peptides)” value: 5 for the first, 5 for the second.

B3 and B4 are the same in “Total (total peptides)” value: 5 for the first, 5 for the second.

B5 and B6 are the same in “Total (total peptides)” value: 4 for the first, 4 for the second.

B7 and B8 are the same in “Total (total peptides)” value: 4 for the first, 4 for the second.

B1 and B2 are the same in “Unique (unique peptides)” value: 5 for the first, 5 for the second.

B3 and B4 are the same in “Unique (unique peptides)” value: 4 for the first, 4 for the second.

B5 and B6 are the same in “Unique (unique peptides)” value: 4 for the first, 4 for the second.

B7 and B8 are the same in “Unique (unique peptides)” value: 4 for the first, 4 for the second.

Same assay, conditions: HA-SS18WT_CHR_peptides: protein identified in HA-SS18 WT BAF complex purification from nuclease-treated solubilized chromatin (CHR), HEK-293T

With B8 the “Total (total peptides)” value was 1.

In the case of B8, the “Unique (unique peptides)” value is reported as 1.

Same assay, conditions: HA-SS18WT_NE_peptides: HA-SS18 WT complexes purified from nuclear extract (NE), HEK-293T; label = protein identified (Gene Symbol)

Going from B1 to B2, the “Total (peptides)” value falls from 6 to 4.

Going from B3 to B4, the “Total (peptides)” value rises from 4 to 10.

Going from B5 to B6, the “Total (peptides)” value rises from 3 to 4.

First: B7
Second: B8
The “Total (peptides)” value of the first is higher: 5 for the first, 3 for the second.

Going from B1 to B2, the “Unique (peptides)” value falls from 5 to 4.

First: B3
Second: B4
The “Unique (peptides)” value of the first is lower: 4 for the first, 8 for the second.

First: B5
Second: B6
The “Unique (peptides)” value of the first is lower: 3 for the first, 4 for the second.

First: B7
Second: B8
The “Unique (peptides)” value of the first is higher: 5 for the first, 3 for the second.
